Source: doi:10.1101/043935
Results are given in words; binding and its absence hold for the method and conditions named. In cells and extracts the contact can be indirect. A yes stands for co-enrichment or nearness to the bait. Other partners may have been found. Where a sequence is shown, tags or fusion partners need not be part of it.

Chains of the proteins cited; added tags and fusions are not shown.
UniProt P68400: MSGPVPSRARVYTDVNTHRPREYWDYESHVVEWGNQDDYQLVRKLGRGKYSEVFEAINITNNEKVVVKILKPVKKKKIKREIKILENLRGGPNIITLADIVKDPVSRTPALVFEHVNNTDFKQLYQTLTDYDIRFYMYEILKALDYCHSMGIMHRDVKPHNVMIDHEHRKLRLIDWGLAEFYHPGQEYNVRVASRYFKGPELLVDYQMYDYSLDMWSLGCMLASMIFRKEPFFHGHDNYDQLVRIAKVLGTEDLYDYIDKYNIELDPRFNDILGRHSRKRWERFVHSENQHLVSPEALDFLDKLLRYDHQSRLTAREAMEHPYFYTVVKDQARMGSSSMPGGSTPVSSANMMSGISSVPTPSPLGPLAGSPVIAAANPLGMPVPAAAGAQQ
UniProt P17844: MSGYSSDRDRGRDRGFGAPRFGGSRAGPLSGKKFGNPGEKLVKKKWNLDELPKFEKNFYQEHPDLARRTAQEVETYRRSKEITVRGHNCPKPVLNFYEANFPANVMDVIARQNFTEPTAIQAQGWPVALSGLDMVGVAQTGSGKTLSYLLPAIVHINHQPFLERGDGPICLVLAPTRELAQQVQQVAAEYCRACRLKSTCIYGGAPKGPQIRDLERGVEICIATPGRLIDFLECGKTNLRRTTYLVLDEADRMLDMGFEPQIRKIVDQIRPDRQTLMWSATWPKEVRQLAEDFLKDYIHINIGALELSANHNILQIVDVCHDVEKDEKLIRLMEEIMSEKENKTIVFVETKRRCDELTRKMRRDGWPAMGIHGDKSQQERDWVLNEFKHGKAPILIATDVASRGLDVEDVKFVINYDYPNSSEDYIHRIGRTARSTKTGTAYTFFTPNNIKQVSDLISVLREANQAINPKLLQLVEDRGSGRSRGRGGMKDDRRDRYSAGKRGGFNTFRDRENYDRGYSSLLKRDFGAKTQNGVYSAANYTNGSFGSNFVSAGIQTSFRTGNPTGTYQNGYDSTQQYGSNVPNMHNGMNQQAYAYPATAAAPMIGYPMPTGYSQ
UniProt Q9NR30: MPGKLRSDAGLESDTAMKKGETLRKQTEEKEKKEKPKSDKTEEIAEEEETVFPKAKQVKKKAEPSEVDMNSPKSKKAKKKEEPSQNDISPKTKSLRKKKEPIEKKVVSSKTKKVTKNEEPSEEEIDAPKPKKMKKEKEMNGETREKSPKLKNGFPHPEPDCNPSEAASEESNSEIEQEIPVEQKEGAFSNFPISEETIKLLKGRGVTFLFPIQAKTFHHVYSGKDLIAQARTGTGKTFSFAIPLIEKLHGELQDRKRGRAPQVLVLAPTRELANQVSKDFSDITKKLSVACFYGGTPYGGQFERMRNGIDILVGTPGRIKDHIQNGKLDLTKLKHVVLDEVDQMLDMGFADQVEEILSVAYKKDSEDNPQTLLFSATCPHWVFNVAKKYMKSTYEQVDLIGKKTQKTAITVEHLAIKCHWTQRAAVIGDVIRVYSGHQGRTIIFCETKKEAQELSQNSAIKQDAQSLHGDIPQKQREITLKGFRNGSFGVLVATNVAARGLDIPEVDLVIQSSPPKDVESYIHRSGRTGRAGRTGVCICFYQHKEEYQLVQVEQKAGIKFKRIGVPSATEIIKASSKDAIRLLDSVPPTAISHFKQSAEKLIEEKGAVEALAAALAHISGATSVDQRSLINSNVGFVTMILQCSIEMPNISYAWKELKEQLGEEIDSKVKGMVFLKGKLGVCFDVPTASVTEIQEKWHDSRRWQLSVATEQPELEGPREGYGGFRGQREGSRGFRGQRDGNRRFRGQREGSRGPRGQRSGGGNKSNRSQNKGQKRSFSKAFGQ
UniProt Q08945: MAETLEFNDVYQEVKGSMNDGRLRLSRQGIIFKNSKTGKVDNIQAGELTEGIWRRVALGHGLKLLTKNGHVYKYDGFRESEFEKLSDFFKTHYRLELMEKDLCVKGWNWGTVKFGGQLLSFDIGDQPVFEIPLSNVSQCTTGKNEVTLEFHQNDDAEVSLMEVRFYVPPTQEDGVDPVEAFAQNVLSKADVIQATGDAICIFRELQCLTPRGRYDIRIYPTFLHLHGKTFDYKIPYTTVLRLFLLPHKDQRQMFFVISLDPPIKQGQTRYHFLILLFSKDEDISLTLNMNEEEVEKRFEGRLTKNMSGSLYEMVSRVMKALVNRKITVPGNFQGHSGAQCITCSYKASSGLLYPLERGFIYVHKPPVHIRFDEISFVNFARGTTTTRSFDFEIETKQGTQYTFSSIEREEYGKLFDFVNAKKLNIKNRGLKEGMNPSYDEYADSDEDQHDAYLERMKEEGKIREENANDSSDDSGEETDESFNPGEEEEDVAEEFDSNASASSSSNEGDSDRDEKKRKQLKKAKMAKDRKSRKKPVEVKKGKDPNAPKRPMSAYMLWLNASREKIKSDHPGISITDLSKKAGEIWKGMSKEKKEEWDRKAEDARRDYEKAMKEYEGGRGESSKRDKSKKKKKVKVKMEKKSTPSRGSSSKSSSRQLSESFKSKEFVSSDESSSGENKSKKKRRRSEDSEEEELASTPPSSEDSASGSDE
UniProt Q9Y5B9: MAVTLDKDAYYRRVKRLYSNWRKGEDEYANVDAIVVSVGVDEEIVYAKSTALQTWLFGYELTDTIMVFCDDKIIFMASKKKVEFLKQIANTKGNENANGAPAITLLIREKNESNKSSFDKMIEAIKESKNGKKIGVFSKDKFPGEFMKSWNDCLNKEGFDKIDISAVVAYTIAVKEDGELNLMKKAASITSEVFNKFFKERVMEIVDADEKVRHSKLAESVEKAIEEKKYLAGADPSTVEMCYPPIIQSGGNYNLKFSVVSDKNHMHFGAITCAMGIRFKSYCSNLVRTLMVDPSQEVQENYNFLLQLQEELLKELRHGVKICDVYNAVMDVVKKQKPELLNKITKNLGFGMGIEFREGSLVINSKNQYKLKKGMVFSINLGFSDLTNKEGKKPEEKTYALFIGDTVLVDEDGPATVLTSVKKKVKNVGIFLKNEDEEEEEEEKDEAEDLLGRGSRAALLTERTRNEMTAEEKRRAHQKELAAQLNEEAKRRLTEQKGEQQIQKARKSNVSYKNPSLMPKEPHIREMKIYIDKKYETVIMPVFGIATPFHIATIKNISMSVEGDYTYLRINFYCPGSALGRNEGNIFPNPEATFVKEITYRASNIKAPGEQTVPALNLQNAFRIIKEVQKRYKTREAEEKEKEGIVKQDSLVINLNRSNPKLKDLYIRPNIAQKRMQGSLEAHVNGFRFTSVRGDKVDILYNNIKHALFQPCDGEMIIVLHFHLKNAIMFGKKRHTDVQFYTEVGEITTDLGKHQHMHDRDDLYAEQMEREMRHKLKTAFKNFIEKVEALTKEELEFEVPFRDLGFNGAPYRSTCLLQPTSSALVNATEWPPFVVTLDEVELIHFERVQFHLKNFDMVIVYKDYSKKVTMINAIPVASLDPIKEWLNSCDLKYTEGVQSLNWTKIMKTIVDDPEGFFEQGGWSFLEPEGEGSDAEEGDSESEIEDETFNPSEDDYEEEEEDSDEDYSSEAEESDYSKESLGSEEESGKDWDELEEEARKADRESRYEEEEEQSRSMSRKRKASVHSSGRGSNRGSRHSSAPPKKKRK
UniProt Q07955: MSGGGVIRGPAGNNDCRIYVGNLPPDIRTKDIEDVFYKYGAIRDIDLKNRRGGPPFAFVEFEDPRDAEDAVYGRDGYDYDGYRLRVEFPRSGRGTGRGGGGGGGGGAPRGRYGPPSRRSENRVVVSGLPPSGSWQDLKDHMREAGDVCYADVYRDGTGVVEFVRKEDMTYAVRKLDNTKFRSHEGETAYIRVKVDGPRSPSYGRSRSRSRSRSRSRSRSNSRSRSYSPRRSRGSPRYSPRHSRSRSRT
UniProt O95793: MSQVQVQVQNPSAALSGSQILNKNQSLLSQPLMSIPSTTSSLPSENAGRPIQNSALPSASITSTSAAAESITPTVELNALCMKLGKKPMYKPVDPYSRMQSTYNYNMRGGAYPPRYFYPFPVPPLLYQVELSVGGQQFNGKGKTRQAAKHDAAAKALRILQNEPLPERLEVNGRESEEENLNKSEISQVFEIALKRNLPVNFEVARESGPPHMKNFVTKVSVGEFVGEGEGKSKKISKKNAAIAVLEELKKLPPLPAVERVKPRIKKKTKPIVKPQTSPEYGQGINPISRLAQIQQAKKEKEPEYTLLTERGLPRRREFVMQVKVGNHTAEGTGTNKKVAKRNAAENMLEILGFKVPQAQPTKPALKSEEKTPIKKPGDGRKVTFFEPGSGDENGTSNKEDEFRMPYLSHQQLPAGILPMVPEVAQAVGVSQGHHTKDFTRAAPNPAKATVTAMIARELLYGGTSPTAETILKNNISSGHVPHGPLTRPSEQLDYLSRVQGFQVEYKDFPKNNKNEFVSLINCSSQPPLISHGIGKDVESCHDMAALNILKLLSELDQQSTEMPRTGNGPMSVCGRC
UniProt Q9H583: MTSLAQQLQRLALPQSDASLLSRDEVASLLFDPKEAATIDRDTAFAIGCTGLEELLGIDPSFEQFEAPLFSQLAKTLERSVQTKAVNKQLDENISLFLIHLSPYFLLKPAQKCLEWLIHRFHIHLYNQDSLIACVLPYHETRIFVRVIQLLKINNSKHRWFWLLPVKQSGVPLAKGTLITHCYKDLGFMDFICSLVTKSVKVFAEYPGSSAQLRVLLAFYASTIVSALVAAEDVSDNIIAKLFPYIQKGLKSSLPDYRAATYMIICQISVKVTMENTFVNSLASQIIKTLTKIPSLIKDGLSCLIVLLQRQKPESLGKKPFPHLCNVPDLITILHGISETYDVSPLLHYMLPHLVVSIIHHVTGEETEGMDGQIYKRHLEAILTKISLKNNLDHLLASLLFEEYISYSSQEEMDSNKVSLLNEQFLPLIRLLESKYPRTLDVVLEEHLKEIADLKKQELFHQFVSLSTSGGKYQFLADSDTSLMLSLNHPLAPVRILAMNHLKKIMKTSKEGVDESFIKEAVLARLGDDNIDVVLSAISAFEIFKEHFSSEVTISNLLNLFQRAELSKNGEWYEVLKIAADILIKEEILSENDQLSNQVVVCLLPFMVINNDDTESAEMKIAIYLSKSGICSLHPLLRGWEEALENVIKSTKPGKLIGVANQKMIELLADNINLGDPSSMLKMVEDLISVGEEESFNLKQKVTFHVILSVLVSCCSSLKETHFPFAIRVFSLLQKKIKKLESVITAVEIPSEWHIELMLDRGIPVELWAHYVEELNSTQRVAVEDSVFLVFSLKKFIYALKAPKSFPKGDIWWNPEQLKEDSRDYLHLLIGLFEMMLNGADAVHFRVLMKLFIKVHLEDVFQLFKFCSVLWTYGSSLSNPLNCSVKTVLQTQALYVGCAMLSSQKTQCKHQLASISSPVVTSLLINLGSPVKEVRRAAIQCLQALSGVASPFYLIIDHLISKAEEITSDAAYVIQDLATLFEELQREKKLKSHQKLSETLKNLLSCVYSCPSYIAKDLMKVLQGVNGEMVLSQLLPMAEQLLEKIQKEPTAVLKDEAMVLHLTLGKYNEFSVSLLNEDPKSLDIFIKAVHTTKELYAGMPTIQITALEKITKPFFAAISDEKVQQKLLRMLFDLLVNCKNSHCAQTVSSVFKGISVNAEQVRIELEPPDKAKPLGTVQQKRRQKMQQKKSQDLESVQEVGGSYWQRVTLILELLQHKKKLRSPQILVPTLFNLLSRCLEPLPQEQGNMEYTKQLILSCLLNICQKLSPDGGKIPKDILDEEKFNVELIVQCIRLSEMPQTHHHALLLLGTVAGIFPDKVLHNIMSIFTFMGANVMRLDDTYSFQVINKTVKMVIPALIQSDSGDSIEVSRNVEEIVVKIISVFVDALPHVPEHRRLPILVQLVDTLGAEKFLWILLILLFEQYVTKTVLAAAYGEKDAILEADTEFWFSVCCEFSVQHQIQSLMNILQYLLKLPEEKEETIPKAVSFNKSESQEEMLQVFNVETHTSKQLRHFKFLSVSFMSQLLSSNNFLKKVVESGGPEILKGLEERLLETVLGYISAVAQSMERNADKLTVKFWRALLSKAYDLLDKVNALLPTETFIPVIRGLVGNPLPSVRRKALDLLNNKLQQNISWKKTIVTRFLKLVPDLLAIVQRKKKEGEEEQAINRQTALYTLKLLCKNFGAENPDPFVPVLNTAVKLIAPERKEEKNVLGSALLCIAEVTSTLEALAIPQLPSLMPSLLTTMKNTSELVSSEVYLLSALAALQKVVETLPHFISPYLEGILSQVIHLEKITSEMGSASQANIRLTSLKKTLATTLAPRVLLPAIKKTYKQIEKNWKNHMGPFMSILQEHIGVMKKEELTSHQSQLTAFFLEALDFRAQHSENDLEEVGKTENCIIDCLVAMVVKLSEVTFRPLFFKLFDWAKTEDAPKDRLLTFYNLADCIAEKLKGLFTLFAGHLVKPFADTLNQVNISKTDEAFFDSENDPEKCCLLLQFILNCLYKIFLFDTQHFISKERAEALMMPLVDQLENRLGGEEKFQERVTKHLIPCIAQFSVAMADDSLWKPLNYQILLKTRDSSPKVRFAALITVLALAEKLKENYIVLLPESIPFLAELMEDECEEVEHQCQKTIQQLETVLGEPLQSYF

T1: Protein A-tagged Nol12 (human) (UniProt Q9UGY1)
T1 sequence: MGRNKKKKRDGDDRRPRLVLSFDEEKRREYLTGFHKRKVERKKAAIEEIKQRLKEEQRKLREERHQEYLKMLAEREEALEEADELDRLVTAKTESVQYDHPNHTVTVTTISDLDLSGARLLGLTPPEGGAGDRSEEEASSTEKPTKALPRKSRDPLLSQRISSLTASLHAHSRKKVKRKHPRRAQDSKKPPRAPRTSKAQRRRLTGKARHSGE

B1: Ftsj3 (protein, UniProt Q8IY81 1-847)
chain: MGKKGKVGKSRRDKFYHLAKETGYRSRSAFKLIQLNRRFQFLQKARALLDLCAAPGGWLQVAAKFMPVSSLIVGVDLVPIKPLPNVVTLQQDITTERCRQALRKELKTWKVDVVLNDGAPNVGASWVHDAYSQAHLTLMALRLACDFLARGGSFITKVFRSRDYQPLLWIFQQLFRRVQATKPQASRHESAEIFVVCQGFLAPDKVDSKFFDPKFAFKEVEVQAKTVTELVTKKKPKAEGYAEGDLTLYHRTSVTDFLRAANPVDFLSKASEIMVDDEELAQHPATTEDIRVCCQDIRVLGRKELRSLLNWRTKLRRYVAKKLKEQAKALDISLSSGEEDEGDEEDSTAGTTKQPSKEEEEEEEEEQLNQTLAEMKAQEVAELKRKKKKLLREQRKQRERVELKMDLPGVSIADEGETGMFSLSTIRGHQLLEEVTQGDMSAADTFLSDLPRDDIYVSDVEDDGDDTSLDSDLDPEELAGVRGHQGLRDQKRMRLTEVQDDKEEEEEENPLLVPLEEKAVLQEEQANLWFSKGSFAGIEDDADEALEISQAQLLFENRRKGRQQQQKQQLPQTPPSCLKTEIMSPLYQDEAPKGTEASSGTEAATGLEGEEKDGISDSDSSTSSEEEESWEPLRGKKRSRGPKSDDDGFEIVPIEDPAKHRILDPEGLALGAVIASSKKAKRDLIDNSFNRYTFNEDEGELPEWFVQEEKQHRIRQLPVGKKEVEHYRKRWREINARPIKKVAEAKARKKRRMLKRLEQTRKKAEAVVNTVDISEREKVAQLRSLYKKAGLGKEKRHVTYVVAKKGVGRKVRRPAGVRGHFKVVDSRMKKDQRAQQRKEQKKKHKRK
B2: Rcl1 (protein, UniProt Q9Y2P8 1-373)
chain: MATQAHSLSYAGCNFLRQRLVLSTLSGRPVKIRKIRARDDNPGLRDFEASFIRLLDKITNGSRIEINQTGTTLYYQPGLLYGGSVEHDCSVLRGIGYYLESLLCLAPFMKHPLKIVLRGVTNDQVDPSVDVLKATALPLLKQFGIDGESFELKIVRRGMPPGGGGEVVFSCPVRKVLKPIQLTDPGKIKRIRGMAYSVRVSPQMANRIVDSARSILNKFIPDIYIYTDHMKGVNSGKSPGFGLSLVAETTSGTFLSAELASNPQGQGAAVLPEDLGRNCARLLLEEIYRGGCVDSTNQSLALLLMTLGQQDVSKVLLGPLSPYTIEFLRHLKSFFQIMFKIETKPCGEELKGGDKVLMTCVGIGFSNLSKTLK
B3: Xrn2 (protein, UniProt Q9H0D6 1-950)
chain: MGVPAFFRWLSRKYPSIIVNCVEEKPKECNGVKIPVDASKPNPNDVEFDNLYLDMNGIIHPCTHPEDKPAPKNEDEMMVAIFEYIDRLFSIVRPRRLLYMAIDGVAPRAKMNQQRSRRFRASKEGMEAAVEKQRVREEILAKGGFLPPEEIKERFDSNCITPGTEFMDNLAKCLRYYIADRLNNDPGWKNLTVILSDASAPGEGEHKIMDYIRRQRAQPNHDPNTHHCLCGADADLIMLGLATHEPNFTIIREEFKPNKPKPCGLCNQFGHEVKDCEGLPREKKGKHDELADSLPCAEGEFIFLRLNVLREYLERELTMASLPFTFDVERSIDDWVFMCFFVGNDFLPHLPSLEIRENAIDRLVNIYKNVVHKTGGYLTESGYVNLQRVQMIMLAVGEVEDSIFKKRKDDEDSFRRRQKEKRKRMKRDQPAFTPSGILTPHALGSRNSPGSQVASNPRQAAYEMRMQNNSSPSISPNTSFTSDGSPSPLGGIKRKAEDSDSEPEPEDNVRLWEAGWKQRYYKNKFDVDAADEKFRRKVVQSYVEGLCWVLRYYYQGCASWKWYYPFHYAPFASDFEGIADMPSDFEKGTKPFKPLEQLMGVFPAASGNFLPPSWRKLMSDPDSSIIDFYPEDFAIDLNGKKYAWQGVALLPFVDERRLRAALEEVYPDLTPEETRRNSLGGDVLFVGKHHPLHDFILELYQTGSTEPVEVPPELCHGIQGKFSLDEEAILPDQIVCSPVPMLRDLTQNTVVSINFKDPQFAEDYIFKAVMLPGARKPAAVLKPSDWEKSSNGRQWKPQLGFNRDRRPVHLDQAAFRTLGHVMPRGSGTGIYSNAAPPPVTYQGNLYRPLLRGQAQIPKLMSNMRPQDSWRGPPPLFQQQRFDRGVGAEPLLPWNRMLQTQNAAFQPNQYQMLAGPGGYPPRRDDRGGRQGYPREGRKYPLPPPSGRYNWN
B4: MYBBP1A (protein, UniProt Q9BQG0 1-1328)
chain: MESRDPAQPMSPGEATQSGARPADRYGLLKHSREFLDFFWDIAKPEQETRLAATEKLLEYLRGRPKGSEMKYALKRLITGLGVGRETARPCYSLALAQLLQSFEDLPLCSILQQIQEKYDLHQVKKAMLRPALFANLFGVLALFQSGRLVKDQEALMKSVKLLQALAQYQNHLQEQPRKALVDILSEVSKATLQEILPEVLKADLNIILSSPEQLELFLLAQQKVPSKLKKLVGSVNLFSDENVPRLVNVLKMAASSVKKDRKLPAIALDLLRLALKEDKFPRFWKEVVEQGLLKMQFWPASYLCFRLLGAALPLLTKEQLHLVMQGDVIRHYGEHVCTAKLPKQFKFAPEMDDYVGTFLEGCQDDPERQLAVLVAFSSVTNQGLPVTPTFWRVVRFLSPPALQGYVAWLRAMFLQPDLDSLVDFSTNNQKKAQDSSLHMPERAVFRLRKWIIFRLVSIVDSLHLEMEEALTEQVARFCLFHSFFVTKKPTSQIPETKHPFSFPLENQAREAVSSAFFSLLQTLSTQFKQAPGQTQGGQPWTYHLVQFADLLLNHSHNVTTVTPFTAQQRQAWDRMLQTLKELEAHSAEARAAAFQHLLLLVGIHLLKSPAESCDLLGDIQTCIRKSLGEKPRRSRTKTIDPQEPPWVEVLVEILLALLAQPSHLMRQVARSVFGHICSHLTPRALQLILDVLNPETSEDENDRVVVTDDSDERRLKGAEDKSEEGEDNRSSESEEESEGEESEEEERDGDVDQGFREQLMTVLQAGKALGGEDSENEEELGDEAMMALDQSLASLFAEQKLRIQARRDEKNKLQKEKALRRDFQIRVLDLVEVLVTKQPENALVLELLEPLLSIIRRSLRSSSSKQEQDLLHKTARIFTHHLCRARRYCHDLGERAGALHAQVERLVQQAGRQPDSPTALYHFNASLYLLRVLKGNTAEGCVHETQEKQKAGTDPSHMPTGPQAASCLDLNLVTRVYSTALSSFLTKRNSPLTVPMFLSLFSRHPVLCQSLLPILVQHITGPVRPRHQACLLLQKTLSMREVRSCFEDPEWKQLMGQVLAKVTENLRVLGEAQTKAQHQQALSSLELLNVLFRTCKHEKLTLDLTVLLGVLQGQQQSLQQGAHSTGSSRLHDLYWQAMKTLGVQRPKLEKKDAKEIPSATQSPISKKRKKKGFLPETKKRKKRKSEDGTPAEDGTPAATGGSQPPSMGRKKRNRTKAKVPAQANGTPTTKSPAPGAPTRSPSTPAKSPKLQKKNQKPSQVNGAPGSPTEPAGQKQHQKALPKKGVLGKSPLSALARKKARLSLVIRSPSLLQSGAKKKAQVRKAGKP
B5: NONO (protein, UniProt Q15233 1-471)
chain: MQSNKTFNLEKQNHTPRKHHQHHHQQQHHQQQQQQPPPPPIPANGQQASSQNEGLTIDLKNFRKPGEKTFTQRSRLFVGNLPPDITEEEMRKLFEKYGKAGEVFIHKDKGFGFIRLETRTLAEIAKVELDNMPLRGKQLRVRFACHSASLTVRNLPQYVSNELLEEAFSVFGQVERAVVIVDDRGRPSGKGIVEFSGKPAARKALDRCSEGSFLLTTFPRPVTVEPMDQLDDEEGLPEKLVIKNQQFHKEREQPPRFAQPGSFEYEYAMRWKALIEMEKQQQDQVDRNIKEAREKLEMEMEAARHEHQVMLMRQDLMRRQEELRRMEELHNQEVQKRKQLELRQEEERRRREEEMRRQQEEMMRRQQEGFKGTFPDAREQEIRMGQMAMGGAMGINNRGAMPPAPVPAGTPAPPGPATMMPDGTLGLTPPTTERFGQAATMEGIGAIGGTPPAFNRAAPGAEFAPNKRRRY

Target: T1, Protein A-tagged Nol12 (human)
Experiment: affinity purification with mass spectrometry

Molecule	binding
B1	binds
B2	binds weakly
B3	binds weakly
B4	binds
B5	binds

Target: T1, Protein A-tagged Nol12 (human)
Experiment: affinity purification with mass spectrometry
Remark: another data set of the same source

Molecule	binding
CKII subunit CSNK2A1 (from UniProt P68400 1-391)	binds
Ddx5 (from UniProt P17844 1-614)	binds
Ddx17 (from UniProt Q92841 1-729)	binds
Ddx21 (from UniProt Q9NR30 1-783)	binds
PRKDC, the catalytic component of DNA-PK (from UniProt P78527 1-4128)	binds
Rrp5 (from UniProt Q14690 1-1871)	binds
SSRP1 (from UniProt Q08945 1-709)	binds
SUPT16H (from UniProt Q9Y5B9 1-1047)	binds
Srsf1 (from UniProt Q07955 1-248)	binds
Stau1 (from UniProt O95793 1-577)	binds
Utp10 (from UniProt Q9H583 1-2144)	binds
phosphatase PP1A (from UniProt P62136 1-330)	binds
snRNP200 (from UniProt O75643 1-2136)	binds
